Results on three substances are retold here after PMC6762199.

The chains behind the UniProt entries cited, without tags or fusion partners. Residues count along the entry.
UniProt Q8NEB9: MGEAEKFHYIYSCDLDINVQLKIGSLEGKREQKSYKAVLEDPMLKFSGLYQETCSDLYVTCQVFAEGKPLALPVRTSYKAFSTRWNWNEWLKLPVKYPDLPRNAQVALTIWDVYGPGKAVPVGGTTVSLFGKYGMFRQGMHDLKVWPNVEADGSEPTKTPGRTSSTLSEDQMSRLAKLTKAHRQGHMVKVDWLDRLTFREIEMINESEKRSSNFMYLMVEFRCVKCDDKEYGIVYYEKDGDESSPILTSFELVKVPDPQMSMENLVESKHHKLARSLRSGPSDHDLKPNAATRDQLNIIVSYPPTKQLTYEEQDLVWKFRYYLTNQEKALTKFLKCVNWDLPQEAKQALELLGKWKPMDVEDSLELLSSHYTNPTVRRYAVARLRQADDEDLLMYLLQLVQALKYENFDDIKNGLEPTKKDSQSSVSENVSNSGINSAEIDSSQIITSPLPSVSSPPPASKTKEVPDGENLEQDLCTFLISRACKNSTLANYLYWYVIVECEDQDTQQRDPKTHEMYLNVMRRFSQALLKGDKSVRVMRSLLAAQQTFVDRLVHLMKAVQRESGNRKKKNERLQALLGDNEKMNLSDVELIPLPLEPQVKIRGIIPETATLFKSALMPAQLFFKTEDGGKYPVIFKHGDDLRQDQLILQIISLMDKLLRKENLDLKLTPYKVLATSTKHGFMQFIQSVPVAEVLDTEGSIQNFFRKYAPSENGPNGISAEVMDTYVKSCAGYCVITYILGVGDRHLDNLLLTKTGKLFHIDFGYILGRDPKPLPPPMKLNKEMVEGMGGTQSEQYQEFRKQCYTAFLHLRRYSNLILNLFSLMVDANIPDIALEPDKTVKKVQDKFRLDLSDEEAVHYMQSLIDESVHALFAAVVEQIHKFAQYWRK
UniProt Q99570: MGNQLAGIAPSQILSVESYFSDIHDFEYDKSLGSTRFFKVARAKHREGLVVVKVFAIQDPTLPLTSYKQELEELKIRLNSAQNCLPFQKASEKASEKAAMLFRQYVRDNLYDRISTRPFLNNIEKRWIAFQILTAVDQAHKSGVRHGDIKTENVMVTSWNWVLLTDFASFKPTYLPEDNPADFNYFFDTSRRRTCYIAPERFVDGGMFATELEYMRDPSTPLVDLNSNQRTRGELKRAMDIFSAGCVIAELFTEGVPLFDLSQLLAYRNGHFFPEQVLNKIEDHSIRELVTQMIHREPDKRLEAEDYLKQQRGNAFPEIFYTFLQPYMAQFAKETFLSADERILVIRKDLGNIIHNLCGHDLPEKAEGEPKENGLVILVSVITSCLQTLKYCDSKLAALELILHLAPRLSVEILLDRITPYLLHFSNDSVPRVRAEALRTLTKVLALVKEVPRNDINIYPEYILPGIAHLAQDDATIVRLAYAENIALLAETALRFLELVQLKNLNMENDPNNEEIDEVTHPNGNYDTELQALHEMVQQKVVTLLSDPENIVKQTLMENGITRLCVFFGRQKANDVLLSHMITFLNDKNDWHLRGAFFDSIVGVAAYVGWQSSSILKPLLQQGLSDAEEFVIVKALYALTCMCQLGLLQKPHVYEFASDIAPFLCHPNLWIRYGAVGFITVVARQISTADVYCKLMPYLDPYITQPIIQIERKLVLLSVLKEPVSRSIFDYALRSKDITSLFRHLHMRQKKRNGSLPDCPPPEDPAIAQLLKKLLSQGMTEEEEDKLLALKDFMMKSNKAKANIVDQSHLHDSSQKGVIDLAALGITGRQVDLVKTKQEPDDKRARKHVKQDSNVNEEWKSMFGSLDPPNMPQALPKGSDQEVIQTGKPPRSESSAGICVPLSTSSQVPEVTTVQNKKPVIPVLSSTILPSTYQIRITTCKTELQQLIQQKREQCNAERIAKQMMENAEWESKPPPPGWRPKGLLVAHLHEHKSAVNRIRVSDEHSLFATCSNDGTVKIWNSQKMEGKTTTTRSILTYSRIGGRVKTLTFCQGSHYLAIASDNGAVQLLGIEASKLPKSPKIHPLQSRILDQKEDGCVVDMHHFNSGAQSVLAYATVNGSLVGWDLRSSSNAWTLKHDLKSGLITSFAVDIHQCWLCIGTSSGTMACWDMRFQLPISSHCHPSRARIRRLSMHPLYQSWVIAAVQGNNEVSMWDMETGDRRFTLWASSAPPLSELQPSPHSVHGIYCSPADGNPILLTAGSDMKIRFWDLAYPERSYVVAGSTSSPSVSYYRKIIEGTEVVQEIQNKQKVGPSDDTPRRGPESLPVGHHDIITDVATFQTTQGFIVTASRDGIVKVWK
UniProt Q14457: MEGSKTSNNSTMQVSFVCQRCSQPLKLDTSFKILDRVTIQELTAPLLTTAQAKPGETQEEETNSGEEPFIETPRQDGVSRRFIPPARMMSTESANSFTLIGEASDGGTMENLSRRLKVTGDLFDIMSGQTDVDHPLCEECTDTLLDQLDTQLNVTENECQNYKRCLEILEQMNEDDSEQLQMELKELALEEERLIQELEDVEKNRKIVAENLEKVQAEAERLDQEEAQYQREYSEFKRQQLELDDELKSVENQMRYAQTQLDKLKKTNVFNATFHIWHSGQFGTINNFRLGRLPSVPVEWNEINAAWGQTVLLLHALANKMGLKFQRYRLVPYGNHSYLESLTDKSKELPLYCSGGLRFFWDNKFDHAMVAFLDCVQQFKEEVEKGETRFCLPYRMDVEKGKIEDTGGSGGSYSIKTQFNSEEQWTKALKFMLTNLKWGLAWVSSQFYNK
UniProt Q99IB8, residues 1977-2442: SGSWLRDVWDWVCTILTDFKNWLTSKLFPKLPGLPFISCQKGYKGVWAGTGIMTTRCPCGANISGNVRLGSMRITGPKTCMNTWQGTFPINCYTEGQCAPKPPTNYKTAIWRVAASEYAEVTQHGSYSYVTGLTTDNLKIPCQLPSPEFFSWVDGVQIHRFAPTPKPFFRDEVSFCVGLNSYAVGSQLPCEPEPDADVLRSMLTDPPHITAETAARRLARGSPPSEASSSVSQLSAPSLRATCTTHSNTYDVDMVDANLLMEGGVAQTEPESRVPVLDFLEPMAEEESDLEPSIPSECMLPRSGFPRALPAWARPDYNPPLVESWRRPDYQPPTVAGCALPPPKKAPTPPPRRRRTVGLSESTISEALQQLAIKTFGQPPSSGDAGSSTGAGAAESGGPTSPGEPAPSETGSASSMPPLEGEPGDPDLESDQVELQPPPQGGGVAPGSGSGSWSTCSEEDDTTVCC

The target of experiment [1] is Flag-Vps34 (human) (UniProt Q8NEB9). Description: co-IP; HEK293FT cells transfected, lysed 48 h later in IP buffer (50 mM Tris HCl pH 7.5, 150 mM NaCl, 1% NP40); Flag-resin, Western blotting. On the technique in general: In western blotting, separated proteins are transferred to a membrane and probed.
For experiment [2], the target named is Flag-tagged Vps15 (human) (UniProt Q99570). Described as above.
For a further experiment, the target named is Flag-Beclin1 (human) (UniProt Q14457). Description: co-IP; Huh7 cells co-transfected, lysed 48 h later in IP buffer (50 mM Tris HCl pH 7.5, 150 mM NaCl, 1% NP40); Flag-resin, Western blotting; in some panels cells treated with control or RACK1 siRNA one day before.
Experiment [3] deals with Flag-Vps34 (human) (UniProt Q8NEB9). Described as above.
Experiment [4] has as its target NS5A-WT-Flag (hepatitis C virus genotype 2a (JFH1)) (UniProt Q99IB8). Kind of experiment: co-IP; HEK293FT cells transfected, lysed 48 h later in IP buffer (50 mM Tris HCl pH 7.5, 150 mM NaCl, 1% NP40); Flag-resin, Western blotting.

Results are given in words; binding and its absence hold for the method and conditions named. In cells and extracts the contact can be indirect. Some entries that bind do so weakly or less than the wild type.

Regarding “GFP-tagged NS5A-WT (from UniProt Q99IB8 1977-2442)”, the binding result with Flag-Vps34 (human) [1] is “binds”; in experiment [2] it was “no binding”; with Flag-Beclin1 (human), “binds”.
With NS5A-HA (from UniProt Q99IB8 1977-2442), the binding entry with Flag-Vps34 (human) [3] is recorded as “binds”.
For “HA-tagged Beclin (from UniProt Q14457 1-450)”, the binding result in experiment [4] is “binds”.
